The list does not hold the whole screen: it is rich in T/C values a quarter to a half above the control, in often repeated tests (any T/C) and in doses without a T/C. Other doses and runs of a compound stand elsewhere. T/C: endpoint of the treated group in % of that of the vehicle group. Some doses have a count of surviving animals in place of a T/C: the source files T/C as zero there, which appears to mark a toxic dose or a test without result, not a measured value. Some doses without a T/C left all or most animals alive at the check, yet need not have been tolerated: the source hardly ever lists a survival T/C far under the control, and the zero likely stands for such cases as well. Counts of survivors are from the toxicity check (mostly the fifth day) where no day follows; animals may have died later. Schedule codes are those of the source, taken here to give the interval after Q, in days (D) or hours (H), and the number of doses after X. Some schedules carry Z or #; the key to these is not given. For survival time, this PubChem deposit counts one and a half times the control or more as active, and values a quarter to a half above the control carry no call in these data; other NCI protocols may use other cut-offs.
System: L1210 leukemia ip in BDF1 mice, survival T/C
Experiment: NCI In Vivo Anticancer Drug Screen. Data for tumor model L1210 Leukemia (intraperitoneal) in B6D2F1 (BDF1) mice
Conditions: T/C endpoint: mean survival time, higher T/C = longer survival
[1] = dose: 200.0 mg/kg/injection, schedule: Q01DX001 (ip), vehicle: saline
[2] = dose: 400.0 mg/kg/injection, schedule: Q04DX002 (ip), vehicle: Klucel (hydroxypropylcellulose) (HPC)
[3] = dose: 200.0 mg/kg/injection, schedule: Q04DX003 (ip), vehicle: Klucel (hydroxypropylcellulose) (HPC)
[4] = dose: 400.0 mg/kg/injection, schedule: Q04DX003 (ip), vehicle: Klucel (hydroxypropylcellulose) (HPC)
[5] = dose: 100.0 mg/kg/injection, schedule: Q01DX009 (ip), vehicle: Klucel (hydroxypropylcellulose) (HPC)
[6] = dose: 200.0 mg/kg/injection, schedule: Q01DX009 (ip), vehicle: Klucel (hydroxypropylcellulose) (HPC)

`CCOP(=O)(Oc1ccc([N+](=O)[O-])cc1)c1cccc(Cl)c1` (stereo unspecified) was tested, and the survivor count (dose: 20.0 mg/kg/injection, schedule: Q01DX001 (ip), vehicle: saline) was 0 of 6, the survivor count (dose: 40.0 mg/kg/injection, schedule: Q01DX001 (ip), vehicle: saline) was 0 of 6 and the survivor count (dose: 80.0 mg/kg/injection, schedule: Q01DX001 (ip), vehicle: saline) was 0 of 6.
For `c1ccc2c(c1)O[As](O[As]1Oc3ccccc3O1)O2`, the survivor count (dose: 18.0 mg/kg/injection, schedule: Q01DX009 (ip), vehicle: saline with Tween-80) was 3 of 6, the survivor count (dose: 25.0 mg/kg/injection, schedule: Q04DX003 (ip), vehicle: saline with Tween-80) was 2 of 6 and the survivor count (dose: 28.0 mg/kg/injection, schedule: Q01DX009 (ip), vehicle: saline with Tween-80) was 0 of 6. For the same compound, the survivor count (dose: 40.0 mg/kg/injection, schedule: Q01DX009 (ip), vehicle: saline with Tween-80) was 0 of 6, the survivor count (dose: 50.0 mg/kg/injection, schedule: Q04DX003 (ip), vehicle: saline with Tween-80) was 0 of 6 and the survivor count (dose: 100.0 mg/kg/injection, schedule: Q04DX003 (ip), vehicle: saline with Tween-80) was 0 of 6. For the same compound, the survivor count (dose: 200.0 mg/kg/injection, schedule: Q04DX003 (ip), vehicle: saline with Tween-80) was 0 of 6 and the survivor count (dose: 400.0 mg/kg/injection, schedule: Q04DX003 (ip), vehicle: saline with Tween-80) was 0 of 6.
For `Cc1c(C(=O)O)nnn1/C=C/c1ccccc1`, the survivor count (dose: 400.0 mg/kg/injection, schedule: Q04DX003 (ip), vehicle: acetone) was 4 of 6.
`CN(C)CCCn1c(=O)c2ccccc2c2ccccc21` was tested, and the survivor count [1] was 0 of 4, the survivor count (dose: 200.0 mg/kg/injection, schedule: Q01DX015 (ip), vehicle: saline) was 0 of 6 and the survivor count (dose: 400.0 mg/kg/injection, schedule: Q01DX001 (ip), vehicle: saline) was 0 of 4.
With `O=S1(=O)CC(N2CCCCC2)C1` the survivor count (dose: 150.0 mg/kg/injection, schedule: Q01DX001 (ip), vehicle: saline) was 2 of 6 and the survivor count (dose: 300.0 mg/kg/injection, schedule: Q01DX001 (ip), vehicle: saline) was 0 of 6.
`O/C(=C/C(=S)S)c1cccs1` was tested, and the survivor count (dose: 6.25 mg/kg/injection, schedule: Q01DX009 (ip), vehicle: water) was 2 of 6, the survivor count (dose: 12.5 mg/kg/injection, schedule: Q01DX009 (ip), vehicle: water) was 3 of 6 and the survivor count (dose: 25.0 mg/kg/injection, schedule: Q01DX009 (ip), vehicle: water) was 0 of 6. For the same compound, the survivor count (dose: 50.0 mg/kg/injection, schedule: Q01DX009 (ip), vehicle: water) was 0 of 6, the survivor count (dose: 100.0 mg/kg/injection, schedule: Q04DX003 (ip), vehicle: water) was 0 of 6 and the survivor count (dose: 200.0 mg/kg/injection, schedule: Q04DX003 (ip), vehicle: water) was 0 of 6. For the same compound, the survivor count (dose: 400.0 mg/kg/injection, schedule: Q04DX003 (ip), vehicle: water) was 0 of 6.
`O=[N+]([O-])c1ccc(/C=N/Nc2c3ccccc3nc3ccccc23)cc1` was tested, and the survivor count (dose: 100.0 mg/kg/injection, schedule: Q01DX001 (ip), vehicle: saline) was 4 of 4 and the survivor count [1] was 4 of 4.
For `Nc1ccc(-c2ccc(N)c(Br)c2)cc1Br`, the survivor count [2] was 3 of 3.
For `Cc1cc(C(=O)CBr)c(CN2C(=O)c3ccccc3C2=O)c(=O)n1C`, the survivor count (dose: 200.0 mg/kg/injection, schedule: Q01DX001 (ip), vehicle: saline with Tween-80) was 1 of 6 and the survivor count (dose: 400.0 mg/kg/injection, schedule: Q01DX001 (ip), vehicle: saline with Tween-80) was 0 of 6.
`N#CN1CC(C(=O)N2CCCCC2)C=C2c3cccc4[nH]cc(c34)CC21` (stereo unspecified) was tested, and the survivor count (dose: 2.0 mg/kg/injection, schedule: Q04DX003 (ip), vehicle: saline) was 6 of 6, the survivor count (dose: 32.0 mg/kg/injection, schedule: Q04DX003 (ip), vehicle: saline) was 3 of 6 and the survivor count (dose: 100.0 mg/kg/injection, schedule: Q04DX003 (ip), vehicle: saline) was 1 of 6. The survivor count (dose: 200.0 mg/kg/injection, schedule: Q04DX003 (ip), vehicle: saline) was 0 of 6 and the survivor count (dose: 400.0 mg/kg/injection, schedule: Q04DX003 (ip), vehicle: saline) was 0 of 6.
With `CC(=O)C1C(N2CC2)CC2C3CCC4=CC(=O)CCC4(C)C3CCC21C` (stereo unspecified) the survivor count (dose: 400.0 mg/kg/injection, schedule: Q01DX001 (sc), vehicle: steroid suspending solution) was 2 of 4.
`CC1=C(O)c2ccccc2C(=O)C1=O` was tested, and the survivor count (dose: 100.0 mg/kg/injection, schedule: Q01DX Z (ip), vehicle: other) was 5 of 6, the survivor count (dose: 150.0 mg/kg/injection, schedule: Q01DX Z (ip), vehicle: other) was 0 of 6 and the survivor count (dose: 200.0 mg/kg/injection, schedule: Q01DX Z (ip), vehicle: other) was 0 of 6.
For `CC12C(=O)OC(=O)C1C1C=CC2C1` (stereo unspecified), the survivor count [2] was 1 of 3 and the survivor count (dose: 400.0 mg/kg/injection, schedule: Q04DX003 (ip), vehicle: other) was 2 of 6.
With `O=[N+]([O-])c1cc(Cl)c(O)c(Cl)c1Cl` the survivor count (dose: 200.0 mg/kg/injection, schedule: Q04DX003 (ip), vehicle: acetone) was 4 of 6, the survivor count (dose: 335.0 mg/kg/injection, schedule: Q01DX009 (ip), vehicle: saline) was 2 of 6 and the survivor count (dose: 400.0 mg/kg/injection, schedule: Q01DX001 (ip), vehicle: acetone) was 2 of 6.
In the case of `O=[N+]([O-])c1cc(S(=O)(=O)F)ccc1O`, the survivor count (dose: 100.0 mg/kg/injection, schedule: Q01DX001 (ip), vehicle: other) is reported as 1 of 4, the survivor count (dose: 200.0 mg/kg/injection, schedule: Q01DX001 (ip), vehicle: other) is reported as 0 of 4 and the survivor count (dose: 400.0 mg/kg/injection, schedule: Q01DX001 (ip), vehicle: other) is reported as 0 of 4.
For `Clc1nc2nc[nH]c2nc1Cl`, the survivor count [3] was 0 of 6 and the survivor count [4] was 0 of 6.
For `N#Cc1ccc(NC(=O)N(CCCl)N=O)cc1`, the T/C (dose: 0.68 mg/kg/injection, schedule: Q01DX009 (ip), vehicle: saline) was 136 % of control, the T/C (dose: 3.12 mg/kg/injection, schedule: Q01DX Z (ip), vehicle: carboxymethylcellulose (CMC)) was 141 % of control and the T/C (dose: 9.37 mg/kg/injection, schedule: Q01DX001 (ip), vehicle: carboxymethylcellulose (CMC)) was 133 % of control. The T/C (dose: 18.75 mg/kg/injection, schedule: Q01DX001 (ip), vehicle: carboxymethylcellulose (CMC)) was 140 % of control, the survivor count (dose: 50.0 mg/kg/injection, schedule: Q01DX Z (ip), vehicle: carboxymethylcellulose (CMC)) was 6 of 6 and the survivor count (dose: 75.0 mg/kg/injection, schedule: Q01DX Z (ip), vehicle: carboxymethylcellulose (CMC)) was 3 of 6. For the same compound, the survivor count (dose: 150.0 mg/kg/injection, schedule: Q01DX Z (ip), vehicle: carboxymethylcellulose (CMC)) was 0 of 6 and the survivor count (dose: 200.0 mg/kg/injection, schedule: Q01DX Z (ip), vehicle: carboxymethylcellulose (CMC)) was 0 of 6.
With `CC/C(=C\c1ccccc1)[N+](=O)[O-]` the survivor count [5] was 3 of 6, the survivor count [6] was 0 of 6 and the survivor count [3] was 5 of 6. The survivor count [4] was 0 of 6.
For `CC(C)(C)OC(=O)NC(CSCc1ccccc1)C(=O)O` (stereo unspecified), the survivor count (dose: 400.0 mg/kg/injection, schedule: Q01DX009 (ip), vehicle: saline with Tween-80) was 4 of 6.
In the case of `CC[n+]1ccc(Nc2ccc(NC(=O)c3ccc(N)cc3)cc2)cc1`, the survivor count [5] is reported as 3 of 6, the survivor count [6] is reported as 0 of 6 and the survivor count (dose: 400.0 mg/kg/injection, schedule: Q01DX009 (ip), vehicle: Klucel (hydroxypropylcellulose) (HPC)) is reported as 0 of 6.
With `CCC(=O)OC(CC=C(C)C)(c1ccccc1)C(C)CN(C)C` (stereo unspecified) the survivor count (dose: 200.0 mg/kg/injection, schedule: Q01DX009 (ip), vehicle: saline) was 0 of 6 and the survivor count (dose: 400.0 mg/kg/injection, schedule: Q01DX009 (ip), vehicle: saline) was 0 of 6.
